# According to PubChem BioAssay AID504834 (National Center for Advancing Translational Sciences (NCATS), 2011):
# Out of some 320,000 compounds screened, about 22,000 (6.9%) were called active. The shares of active, inactive and inconclusive entries below differ from those in the screen. Calls follow the shape of the dose curve; as a rule, active = well fitted inhibition curve with a large enough effect; inconclusive = small, poorly fitted or top-dose-only effect, or another doubt; inactive = no such curve, though single readings can be large or run the other way. Potencies beside an inconclusive call are fits to weak or partial responses and may not hold up.
# Assay: Primary qHTS for delayed death inhibitors of the malarial parasite plastid, 96 hour incubation
# Settings: P. falciparum luciferase reporter growth; series mostly up to 28.7 µM; activity change, negative = inhibition: at the top concentration
# Summary of the method: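 Erythrocytes infected with luciferase-expressing P. falciparum were dispensed at 2% hematocrit and 0.05% parasitemia (final), then incubated with compounds 96 hours at 37 C in 5% CO2. Luminescence after detection reagent addition reported growth.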
# % is scaled to controls: 0 for no effect and ±100 for the full control effect; potency is read from the fitted curve at half-maximal effect.
SMILES,Potency,"activity change, negative = inhibition"
CCOc1ccccc1NC(=O)c1cnc2n(c1=O)CCS2,"inconclusive: 10.4 µM [inhibitor, partial curve]",
COc1cccc(C2c3[nH]c4ccccc4c3CCN2C(=O)c2ccccc2F)c1OC (configuration not stated),"inconclusive: 18.5 µM [inhibitor, partial curve, poor fit]",
Cc1cccc(OCC(=O)NCCCNC(=O)c2ccc(C)nc2)c1,,inactive: -11.1%
COc1ccccc1-c1c(C)oc2c(CN3CCN(CCO)CC3)c(O)ccc2c1=O,,inactive: 26.3%
CC(=O)c1cccc(NC(=O)c2ccccc2N(C)S(=O)(=O)c2ccc(C)cc2)c1,active: 13.1 µM,
COc1ccccc1NC(=O)Cc1nc(CCl)cs1,,inactive: -5.79%
COc1ccc(C2(C)CC(=O)NC2=O)cc1 (configuration not stated),,inactive: 25.5%
O=C(CSc1nc2ccccc2n1CC(=O)N1CCCC1)N1CCN(C(=O)c2ccco2)CC1,active: 6.57 µM,
C/C(=N\NC(=O)c1ccccc1F)c1ccc2c(c1)Nc1ccccc1S2,"inconclusive: 6.57 µM [inhibitor, partial curve]",
O=c1[nH]c(N/N=C/c2cc3c(cc2[N+](=O)[O-])OCO3)nc2ccccc12,"inconclusive: 4.15 µM [inhibitor, partial curve, poor fit]",
Cc1ccc(C(C)C)c(OCCNC(=O)c2ccccc2O)c1,"inconclusive: 13.1 µM [inhibitor, partial curve, poor fit]",
CN(C)S(=O)(=O)c1ccc(N2CCCC2)c(C(=O)OCC(=O)NC2(C#N)CCCCC2)c1,"inconclusive: 4.15 µM [inhibitor, partial curve]",
CCOc1ccc(OCCC(=O)N(CCC(C)C)c2c(N)n(Cc3ccccc3)c(=O)[nH]c2=O)cc1,,inactive: 14%
CC(=O)Nc1ccc(N(C(=O)CNC(=O)c2cccs2)C(C(=O)NC(C)(C)C)c2ccccc2)cc1 (configuration not stated),"inconclusive: 13.1 µM [inhibitor, partial curve, poor fit]",
COc1ccc(/C=N/NC(=O)CN2CCCC2)cc1,"inconclusive: 9.28 µM [inhibitor, partial curve, poor fit]",
C=CCc1ccc(OCCCCN2CC(C)OC(C)C2)c(OC)c1 (configuration not stated),"inconclusive: 13.1 µM [inhibitor, single point]",
COc1cc(OC)c(NC(=O)c2sc3ncn(CC(=O)N4CCN(c5ccccn5)CC4)c(=O)c3c2C)cc1Cl,"inconclusive: 18.5 µM [inhibitor, single point]",
O=C(Cc1ccccc1)NC1c2ccccc2-c2ccccc21,"inconclusive: 16.5 µM [inhibitor, single point]",
COCCOc1cc(NC(=O)c2sccc2Oc2ccc([N+](=O)[O-])cc2F)c(Cl)cc1Cl,"inconclusive: 16.5 µM [inhibitor, single point]",
O=C(COC(=O)c1cc(S(=O)(=O)N2CCOCC2)c(Cl)cc1Cl)NC1CC1,"inconclusive: 10.4 µM [inhibitor, single point]",
CCCC1=Nc2cc(C(=O)NCCN3CCCC3)ccc2Sc2ccccc21,"inconclusive: 6.57 µM [inhibitor, partial curve]",
O=C(/C=C/c1cccc([N+](=O)[O-])c1)NCCSc1ccccc1,active: 10.4 µM,
Cc1nn(-c2ccc(F)cc2F)c(=O)c2noc(C)c12,,inactive: -17.8%
O=C1N/C(=C\c2ccsc2)C(=O)N1Cc1ccc(F)cc1,"inconclusive: 8.28 µM [inhibitor, single point]",

SMILES,Potency,"activity change, negative = inhibition"
Oc1ccc(CCNc2ncnc3ccc(Cl)cc23)cc1,,inactive: 16.7%
O=C1CN(c2nc3ccccc3n3cnnc23)CC(=O)N1CCc1ccccc1,"inconclusive: 11.7 µM [inhibitor, single point]",
Cc1cccc(-c2sc(Nc3ccccc3)n[n+]2-c2ccc(F)cc2)c1,"inconclusive: 18.5 µM [inhibitor, single point]",
Cc1ccc(P(=O)(OCCN2CCOCC2)C(C)(C)C)o1 (configuration not stated),"inconclusive: 18.5 µM [inhibitor, single point]",
Cc1cc2oc3c(c(=O)c2cc1C)C(c1cccc(Br)c1)N(Cc1ccco1)C3=O (configuration not stated),"inconclusive: 1.85 µM [inhibitor, partial curve, poor fit]",
NC1=NC[C@@H](Cc2ccc(O)cc2)N1CCc1cccc(F)c1,active: 1.85 µM,
Cc1cccc(NC(=O)CSc2nc(=O)n(CCCN3CCOCC3)c3c2CCCC3)c1,"inconclusive: 13.1 µM [inhibitor, single point]",
CCN(CC)S(=O)(=O)c1ccc(N2CCN(C)CC2)c(NC(=O)COc2ccc(F)cc2Cl)c1,"inconclusive: 3.29 µM [inhibitor, full curve]",
CCn1c(SCC(=O)Nc2ccc(C)cc2)nnc1-c1ccccn1,,inactive: -1.26%
CC1=C(C(=O)OCC2CCCO2)C(c2ccc(F)cc2)NC(=O)N1 (configuration not stated),,inactive: -20.9%
Cc1cc(=O)oc2c(C)c(OC(C)C(=O)N3CC[C@@]4(O)CCCC[C@H]4C3)ccc12 (some centres not stated),"inconclusive: 16.5 µM [inhibitor, partial curve, poor fit]",
CCCN1CCC(=O)N([C@H](CSc2ccc(OC)cc2)Cc2ccccc2)CC1,active: 2.94 µM,
O=S(=O)(NC1CC1)c1cccc(S(=O)(=O)N2CCCC2)c1,,inactive: 21.6%
CC(NC(C)c1ccccc1Cl)C(=O)Nc1cccc(S(=O)(=O)N2CCCCC2)c1 (configuration not stated),active: 13.1 µM,
CCCC(=O)OC(C(=O)Nc1cc(C(F)(F)F)ccc1Cl)c1ccccc1 (configuration not stated),active: 13.1 µM,
COc1ccccc1NC(=O)c1ccccc1NC(=O)c1cccs1,"inconclusive: 0.0033 µM [inhibitor, full curve, poor fit]",
CCCCCCCCCCCCCCCC[n+]1ccc(/C=N/O)cc1,active: 1.17 µM,
COc1ccc(/C=C2/Sc3ccc(C(=O)N4CCOCC4)cc3NC2=O)cc1OC,active: 14.7 µM,
COc1ccc(Cl)cc1NC(=O)C1CC(=O)N(C2CCCCC2)C1 (configuration not stated),"inconclusive: 16.5 µM [inhibitor, single point]",
C=C(c1ccc(O)cc1)c1ccc(O)cc1,,inactive: -6.84%
CC(C)N1CCN(C(=O)c2ccc(NC(=O)c3ccc(Br)o3)cc2)CC1,,inactive: 8.27%
O=C(c1ccc2c3c(cccc13)CC2)C1CCCN(Cc2cccnc2)C1 (configuration not stated),"inconclusive: 11.7 µM [inhibitor, single point]",
Cc1cc(NC(=O)CSCC(=O)N2CCN(c3cccc(C)c3C)CC2)no1,"inconclusive: 18.5 µM [inhibitor, single point]",
COc1ccccc1-n1c(SCC(=O)OC(C)C)nc2cccnc21,,inactive: -6.26%

# Taken from the entries so far (13 entries):
SMILES,Potency,"activity change, negative = inhibition"
CCn1c(SCC(=O)Nc2ccc(C)cc2)nnc1-c1ccccn1,,inactive: -1.26%
CC1=C(C(=O)OCC2CCCO2)C(c2ccc(F)cc2)NC(=O)N1 (configuration not stated),,inactive: -20.9%
Cc1cc(=O)oc2c(C)c(OC(C)C(=O)N3CC[C@@]4(O)CCCC[C@H]4C3)ccc12 (some centres not stated),"inconclusive: 16.5 µM [inhibitor, partial curve, poor fit]",
CCCN1CCC(=O)N([C@H](CSc2ccc(OC)cc2)Cc2ccccc2)CC1,active: 2.94 µM,
O=S(=O)(NC1CC1)c1cccc(S(=O)(=O)N2CCCC2)c1,,inactive: 21.6%
CC(NC(C)c1ccccc1Cl)C(=O)Nc1cccc(S(=O)(=O)N2CCCCC2)c1 (configuration not stated),active: 13.1 µM,
CCCC(=O)OC(C(=O)Nc1cc(C(F)(F)F)ccc1Cl)c1ccccc1 (configuration not stated),active: 13.1 µM,
COc1ccccc1NC(=O)c1ccccc1NC(=O)c1cccs1,"inconclusive: 0.0033 µM [inhibitor, full curve, poor fit]",
CCCCCCCCCCCCCCCC[n+]1ccc(/C=N/O)cc1,active: 1.17 µM,
COc1ccc(/C=C2/Sc3ccc(C(=O)N4CCOCC4)cc3NC2=O)cc1OC,active: 14.7 µM,
COc1ccc(Cl)cc1NC(=O)C1CC(=O)N(C2CCCCC2)C1 (configuration not stated),"inconclusive: 16.5 µM [inhibitor, single point]",
C=C(c1ccc(O)cc1)c1ccc(O)cc1,,inactive: -6.84%
CC(C)N1CCN(C(=O)c2ccc(NC(=O)c3ccc(Br)o3)cc2)CC1,,inactive: 8.27%

# (next part)

SMILES,Potency,"activity change, negative = inhibition"
COc1cccc(CNC(=O)C2CCC(=O)N(CCc3cccc(F)c3)C2)c1 (configuration not stated),,inactive: -0.438%
Cc1ccccc1Nc1nc(N)nc(COC(=O)C(NC(=O)c2ccco2)C(C)C)n1 (configuration not stated),"inconclusive: 7.38 µM [inhibitor, partial curve, poor fit]",
Cc1cccc(Cc2c(C)nc3c(C(=O)N4CCN(Cc5ccc6c(c5)OCO6)CC4)cnn3c2C)c1,"inconclusive: 10.4 µM [inhibitor, single point]",
CCOc1cccc(-c2nc(C(N)=O)c3[nH]c(=O)n(-c4cccc(Cl)c4)c3n2)c1O,"inconclusive: 1.47 µM [inhibitor, full curve]",
CC(O)Cc1cn(CC(=O)N2CCN(C(=O)OC(C)(C)C)CC2)nn1 (configuration not stated),,inactive: 81.8%
O=C1CCC(=O)N1CN(Cc1ccco1)CN1C(=O)CCC1=O,"inconclusive: 10.4 µM [inhibitor, single point]",
COc1cc(/C=N/NC(=O)c2ccc(CSc3nc4ccccc4[nH]3)cc2)cc(OC)c1OC,,inactive: 0%
Fc1ccc2cnc(-c3ccccc3)c(-c3cccc(C(F)(F)F)c3)c2c1,"inconclusive: 16.5 µM [inhibitor, single point]",
O=C(N/N=C/c1ccc([N+](=O)[O-])o1)c1ccccc1-n1cccc1,"inconclusive: 14.7 µM [inhibitor, single point]",
COC(=O)C(Cc1ccc(O)cc1)NC(=O)C12CC3CC(CC(C3)C1)C2 (configuration not stated),"inconclusive: 2.33 µM [inhibitor, single point]",
CC(C)Oc1ccc(NC(=O)CCC(=O)O)cc1,"inconclusive: 16.5 µM [inhibitor, partial curve, poor fit]",
CCn1cc(/C=C(\NC(=O)c2ccc(OC)cc2)C(=O)N2CCN(C)CC2)c2ccccc21,active: 13.1 µM,
O=C(Nc1nccs1)c1nc[nH]c1C(=O)N1CCc2ccccc2C1,,inactive: 32.3%
CCCCOc1ccc(S(=O)(=O)Nc2cccnc2)cc1,active: 2.33 µM,
C=CCn1c(CCC(=O)O)ccc1-c1ccc(OC)cc1,,inactive: -24.6%
O=C(O)CNC(=S)NCc1ccccc1,,inactive: 20.4%
O=C1CSC(=Nc2ccc(O)cc2)N1,,inactive: 0%
CC(=O)N1c2ccc(S(=O)(=O)N(C)CC(=O)Nc3ccccc3C)cc2CC1C (configuration not stated),"inconclusive: 9.28 µM [inhibitor, single point]",
CCOC(=O)c1cc(S(=O)(=O)NCc2ccco2)cn1C,"inconclusive: 9.28 µM [inhibitor, single point]",
CC(C)Cn1nnc2c(=O)oc3ccccc3c21,,inactive: 127%
Cc1cc(C)c(C)c(S(=O)(=O)NCc2ccc(C(=O)NCC3CCCO3)cc2)c1C (configuration not stated),"inconclusive: 2.33 µM [inhibitor, partial curve, poor fit]",
COc1ccc(OC)c(S(=O)(=O)N2CCCC(C(=O)NCCN3CCOCC3)C2)c1 (configuration not stated),"inconclusive: 6.57 µM [inhibitor, partial curve, poor fit]",
CCN(CC)CCn1c2c(c(SCC(=O)Nc3cc(C)on3)nc1=O)CCCC2,,inactive: -10.2%
O=C(O)c1cccc(CSc2nc(-c3ccc(Cl)cc3)cc(C(F)(F)F)n2)c1,"inconclusive: 16.5 µM [inhibitor, single point]",
